Experimental data taken from the supplement of paper PMC10338343.
± gives the standard deviation. The entries are a selection whose mix differs from that of the whole data set. Many of these values have a large error.

How the values were obtained:
[1] = tested on: MIWI (PIWIL1) piRISC loaded with piRNA #1 (30 nt); experiment: pre-steady-state target cleavage rate (min^-1); higher = faster piRNA-guided slicing of the target; details: guide: piRNA #1 5'p-UGAGGUAGUAGGUUGUAUAGUAUCCAGAGG; auxiliary factor: 500 nM mouse GTSF1;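 further: 1 nM active piRISC with 0.1 nM target library at 33 °C single turnover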
Procedure, shortened: (§1)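 At 33 °C in HEPES–potassium acetate buffer, a transcribed, DNA-blocked target RNA library […] was exposed for 0–8 or 0–960 min to 1 nM active affinity-purified piRISC carrying a single synthetic guide, with or without 500 nM GTSF1 partner protein. Uncleaved targets were sequenced and normalised to depth and to weakly complementary targets. With three trials pooled and k3 capped at 0.0001 min^-1, a burst-and-steady-state fit produced the pre-steady-state cleavage rate.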

[2] = tested on: EfPiwi piRISC loaded with piRNA #1 (26 nt); experiment: pre-steady-state target cleavage rate (min^-1); guide: piRNA #1 5'p-UGAGGUAGUAGGUUGUAUAGUAUCCA; MIWI and MILI are mouse PIWI proteins and EfPiwi is from a freshwater sponge; tags in brackets are library labels; higher = faster piRNA-guided slicing of the target; details: auxiliary factor: 500 nM Ephydatia muelleri Gtsf1
Procedure, shortened: as §1

Sequence	pre-steady-state target cleavage rate [1]	pre-steady-state target cleavage rate [2]
GCUCUGGAUACUAUACAACCUACUACCUCA [g2:g29:cont:t1A]	1.89 ± 0.1	
GGACUGGAUACUAUACAACCAUACUACCUCA	0.00173 ± 0.0058	
GCUCUGGAUACUAUACAACGAUCUACCUCA	0.000946 ± 0.011	
GGACUGGAUACUAUACAACCUACUAGCACA	0.000422 ± 0.015	
GCUCUGGAUAAUAUACAACCUACUACCUCA	2.07 ± 0.13	
GGAGACCUAUGAUUACAACCUACUACCUCG [g2:g17:cont:t1G]	0.00188 ± 0.0037	
GGAGACCUAUGAUUACAACCUACUACUCUCA	0.00131 ± 0.0063	
GGAGACCUUUCUAUACAACCUAGUACCUCA	0.238 ± 0.034	
GGUCUGGAAACUAUUCAACCUACUACCUCA	1.58 ± 0.096	
GGAGACCUAUGAAUACAACCUACUACGCUCA	0.00203 ± 0.0036	
GGAGACCUAUGAAUACAACCUACUACCUGCA	0.000983 ± 0.0064	
GGUCUGGAUACUAUACAACCUGACUACCUCA	0.00228 ± 0.0023	
GGAGUGGAUACUAUACUACCUACUACCUGA	0.329 ± 0.052	
GGUCUGGAUACUAUAGAACCUACUUCCUCA	0.000427 ± 0.0092	
GGAGACCUAUGAAUACAAGCUACUUCCUCA	0.000259 ± 0.01	
GGAGACCUAUGAUUACAACCUACUACCUAA	0.00042 ± 0.0078	
GGAGACCUAUGAUUACAACCUACUACGCUCA	0.00159 ± 0.0058	
GGAGACCUAUGAAUACAACCUAAUACCUCA	0.000523 ± 0.0045	
GGACUGGAUGCUAUACAACCUACUACCUCA	1.82 ± 0.15	
GGUCUGGAUACUAUACAACCUCACUACCUCA	0.00192 ± 0.0039	
GGAGACCUAUGAUUACAAGCUACUUCCUCA	0.000856 ± 0.0077	
GGACUGGAUACUAUACAACCUAGUACGUCA	0.00245 ± 0.0032	
GGAGACCUAUGAUAACAAGCCUACUACCUCA	0.000305 ± 0.018	
CCUCUGGAUACUAUCAACCUACUACCUCA	1.82 ± 0.12	
GGAGACCUAACUUAUCAACCUACUACCUCA	0.00263 ± 0.0063	
GGACUGGAUACUAUACAACACUACUACCUCA	0.000375 ± 0.019	
CCUCUGGAUACUAUACAACCUACUAACCUCA	2.09 ± 0.13	

23 successive records already listed, quoted:
Sequence	pre-steady-state target cleavage rate [1]	pre-steady-state target cleavage rate [2]
GGACUGGAUACUAUACAACCAUACUACCUCA	0.00173 ± 0.0058	
GCUCUGGAUACUAUACAACGAUCUACCUCA	0.000946 ± 0.011	
GGACUGGAUACUAUACAACCUACUAGCACA	0.000422 ± 0.015	
GCUCUGGAUAAUAUACAACCUACUACCUCA	2.07 ± 0.13	
GGAGACCUAUGAUUACAACCUACUACCUCG [g2:g17:cont:t1G]	0.00188 ± 0.0037	
GGAGACCUAUGAUUACAACCUACUACUCUCA	0.00131 ± 0.0063	
GGAGACCUUUCUAUACAACCUAGUACCUCA	0.238 ± 0.034	
GGUCUGGAAACUAUUCAACCUACUACCUCA	1.58 ± 0.096	
GGAGACCUAUGAAUACAACCUACUACGCUCA	0.00203 ± 0.0036	
GGAGACCUAUGAAUACAACCUACUACCUGCA	0.000983 ± 0.0064	
GGUCUGGAUACUAUACAACCUGACUACCUCA	0.00228 ± 0.0023	
GGAGUGGAUACUAUACUACCUACUACCUGA	0.329 ± 0.052	
GGUCUGGAUACUAUAGAACCUACUUCCUCA	0.000427 ± 0.0092	
GGAGACCUAUGAAUACAAGCUACUUCCUCA	0.000259 ± 0.01	
GGAGACCUAUGAUUACAACCUACUACCUAA	0.00042 ± 0.0078	
GGAGACCUAUGAUUACAACCUACUACGCUCA	0.00159 ± 0.0058	
GGAGACCUAUGAAUACAACCUAAUACCUCA	0.000523 ± 0.0045	
GGACUGGAUGCUAUACAACCUACUACCUCA	1.82 ± 0.15	
GGUCUGGAUACUAUACAACCUCACUACCUCA	0.00192 ± 0.0039	
GGAGACCUAUGAUUACAAGCUACUUCCUCA	0.000856 ± 0.0077	
GGACUGGAUACUAUACAACCUAGUACGUCA	0.00245 ± 0.0032	
GGAGACCUAUGAUAACAAGCCUACUACCUCA	0.000305 ± 0.018	
CCUCUGGAUACUAUCAACCUACUACCUCA	1.82 ± 0.12	

(listing goes on)

Sequence	pre-steady-state target cleavage rate [1]	pre-steady-state target cleavage rate [2]
CCUCUGGAUACUAUACAACGAUCUACCUCA	0.00132 ± 0.0091	
GGUCUGGAUACUAUACAACGUUCUACCUCA	0.117 ± 0.014	
GGAGACCUAUGAUAAAACCUACUACCUCA	0.000638 ± 0.0047	
GCUCUGGAUACUAUACAACGAUGAUGGAGA [g12:g29:cont:t1A]	0.000158 ± 0.033	
GGUCUUGGAUACUAUACAACCUACUACCUCA	1.87 ± 0.11	
GGAGACCUAACUUACAACCUACUACCUCA	0.00932 ± 0.008	
GGACUGGAUACUAUACAACCUACUAGGACA	0.000378 ± 0.01	
GGAGACCUAUCUAUACACCUACUACCUCA	0.00142 ± 0.0045	
GGAGACCUAUGAUUACAACCUACUACCUA	0.00146 ± 0.0035	
CCUCUCGAUACAAUACAACCUACUACCUCA	2.17 ± 0.14	
CCUCUGGAUACUAUACAACCCUACUACCUCA	0.00658 ± 0.0036	
GGAGAGGAUACUAUACAACACUACUACCUCA	0.000142 ± 0.028	
GGUCUGGAUACUAUACAAGCCUACUACCUCA	0.000939 ± 0.0083	
GGAGACCUAACAAUUCAACCUACUACCUCA	0.000243 ± 0.02	
CCUCUGGAUACUAUACAACCUACUACCUCG [g2:g30:cont:t1G]	1.32 ± 0.094	
GGAGACCUAUGUAUACAACCUACUAGGACA	0.000374 ± 0.015	
GGAGACCUAUGAUUACAUCCUACUACCACA	0.00154 ± 0.0047	
GGAGACCUAUGAUAUGUUCCUCUACCUCA	0.000177 ± 0.011	
CCUCUGGAUAUAUACAACCUACUACCUCA	1.9 ± 0.12	
GGUCUGGUUACUAUACAACCUACUACCACA	0.747 ± 0.068	
GGAGACCUAUGAUAUCAACCUACUCCUCA	0.000111 ± 0.018	
GGAGACCUAUGUAUAAAACCUACUACCUCA	0.00207 ± 0.0025	
GGACUGGUUACUAUACAACCUACUACCUCA	1.65 ± 0.13	
GCUCUGCAUACUAUACAACCUACUACCUCA	1.96 ± 0.11	
GCUCUGGCAUACUAUACAACCUACUACCUCA	2.17 ± 0.12	
GGAGACCUAUCUAAACAACCAACUACCUCA	0.00114 ± 0.0047	
CCUCUGGAUACUAUACAACCUAUUACCUCA	2.07 ± 0.13	

Sequence	pre-steady-state target cleavage rate [1]	pre-steady-state target cleavage rate [2]
CCUCUGGAUACUUACAACCUACUACCUCA	1.3 ± 0.12	
GGAGACCUAUGAUAUCUAACCUACUACCUCA	0.000143 ± 0.021	
GCUCUGGAUACUAUACUACCUACAACCUCA	0.938 ± 0.086	
GGACUCGAUACAAUACAACCUACUACCUCA	1.46 ± 0.095	
GGAGACCUAUGAUUCAACCUACUACCUCA	0.00103 ± 0.0046	
GGUCCUGGAUACUAUACAACCUACUACCUCA	1.97 ± 0.099	
GGAGACCUAUGAUAUCAACCUACCUACCUCA	0.000909 ± 0.0049	
GCUCUGGAUACUAUACAACCUACAUGCUCA	0.589 ± 0.072	
GCUCAGGAUACUUUACAACCUACUACCUCA	1.81 ± 0.11	
GGUCUGGAUACUAUACAACCUACAACCUGA	0.00204 ± 0.0042	
GGUCUGGAUACUAUACAACCCUACUACCUCA	0.000673 ± 0.0068	
CCACUCGAUACUAUACAACCUACUACCUCA	2.13 ± 0.14	
GGAGACCUAUGAUAACCAACCUACUACCUCA	0.000247 ± 0.011	
GGAGACCUUACUAUACACACCUACUACCUCA	0.000545 ± 0.012	
GGAGACCUAUGAUAUGUUCCUACUAGGACA	0.000156 ± 0.026	
GGAGACCUAUGUAUACAUCGUACUACCUCA	0.00183 ± 0.0047	
GGACUGGAUACUAUACAAGGAACUACCUCA	0.00253 ± 0.0037	
GGACUGGAUACUAUACAACGCUACUACCUCA	0.000331 ± 0.019	
GCUCAGGAAACUAUACAACCUACUACCUCA	1.78 ± 0.1	
GGAGACCUAUGAUAUCAACCUACUACUCA	0.000149 ± 0.015	
GCUCUGGAUAGUAUACAACCUACUACCUGA	0.324 ± 0.045	
GGACUGGAUACUUAUCAACCUACUACCUCA	0.719 ± 0.1	
GGACUGGAUACUAUACAACCUACUUCGUCA	0.00241 ± 0.0026	
GGAGUGGAUACUUUACAACCUACUACCUCA	1.53 ± 0.086	
GGAGACCUAUGAAUACAUCCUUCUACCUCA	0.000918 ± 0.0057	
GGAGACCUAUGAUAACAACCUACUACCUCA [g2:g16:cont:t1A]	0.000918 ± 0.0081	0.00249 ± 0.0039
